Reference: publication PMC12068309
Results are given in words; binding and its absence hold for the method and conditions named. Binding seen in cells or lysates may run through a third protein. Some entries that bind do so weakly or less than the wild type. Tags and fused reporters may be left off the sequences shown.

Amino acid sequences for entries named in this document (tags omitted).
UniProt O43865: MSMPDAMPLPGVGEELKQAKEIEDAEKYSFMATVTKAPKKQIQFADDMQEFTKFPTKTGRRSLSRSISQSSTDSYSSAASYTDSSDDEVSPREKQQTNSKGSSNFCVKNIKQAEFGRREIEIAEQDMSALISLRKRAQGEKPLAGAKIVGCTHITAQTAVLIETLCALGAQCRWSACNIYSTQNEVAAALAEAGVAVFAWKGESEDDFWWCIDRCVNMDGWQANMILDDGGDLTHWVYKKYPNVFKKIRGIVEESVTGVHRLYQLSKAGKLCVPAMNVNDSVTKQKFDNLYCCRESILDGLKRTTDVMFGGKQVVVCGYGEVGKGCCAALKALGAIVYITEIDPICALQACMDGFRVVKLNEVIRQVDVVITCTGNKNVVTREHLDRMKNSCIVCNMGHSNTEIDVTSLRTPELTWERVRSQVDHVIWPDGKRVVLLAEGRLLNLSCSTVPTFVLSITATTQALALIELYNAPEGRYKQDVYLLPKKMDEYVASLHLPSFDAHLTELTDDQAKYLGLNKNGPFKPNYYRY

Biological target: HA-AHCYL1 (UniProt O43865)
Test: co-IP; exogenous proteins in HEK293T; IP with HA antibody, detected by Myc antibody

Row | Binder | binding
1 | Myc-PREX2 DH domain (domain or fragment, UniProt Q70Z35 23-214) LRVCVLSELQKTERDYVGTLEFLVSAFLHRMNQCAASKVDKNVTEETVKMLFSNIEDILAVHKEFLKVVEECLHPEPNAQQEVGTCFLHFKDKFRIYDEYCSNHEKAQKLLLELNKIRTIRTFLLNCMLLGGRKNTDVPLEGYLVTPIQRICKYPLILKELLKRTPRKHSDYAAVMEALQAMKAVCSNINEA | binds
2 | Myc-PREX2 PH domain (domain or fragment, UniProt Q70Z35 245-361) EMLMCGVLLKISSGNIQERVFFLFDNLLVYCKRKHRRLKNSKASTDGHRYLFRGRINTEVMEVENVDDGTADFHSSGHIVVNGWKIHNTAKNKWFVCMAKTPEEKHEWFEAILKERE | binds
